Measured values as given in publication PMC7183511.
Results are given in words; binding and its absence hold for the method and conditions named. In cells and extracts the contact can be indirect. Some entries that bind do so weakly or less than the wild type.

The chains behind the UniProt entries cited, without tags or fusion partners. Where a name states a change or a piece, a line headed by the entry shows the natural chain unless it says otherwise. Residues count along the entry.
UniProt Q01815: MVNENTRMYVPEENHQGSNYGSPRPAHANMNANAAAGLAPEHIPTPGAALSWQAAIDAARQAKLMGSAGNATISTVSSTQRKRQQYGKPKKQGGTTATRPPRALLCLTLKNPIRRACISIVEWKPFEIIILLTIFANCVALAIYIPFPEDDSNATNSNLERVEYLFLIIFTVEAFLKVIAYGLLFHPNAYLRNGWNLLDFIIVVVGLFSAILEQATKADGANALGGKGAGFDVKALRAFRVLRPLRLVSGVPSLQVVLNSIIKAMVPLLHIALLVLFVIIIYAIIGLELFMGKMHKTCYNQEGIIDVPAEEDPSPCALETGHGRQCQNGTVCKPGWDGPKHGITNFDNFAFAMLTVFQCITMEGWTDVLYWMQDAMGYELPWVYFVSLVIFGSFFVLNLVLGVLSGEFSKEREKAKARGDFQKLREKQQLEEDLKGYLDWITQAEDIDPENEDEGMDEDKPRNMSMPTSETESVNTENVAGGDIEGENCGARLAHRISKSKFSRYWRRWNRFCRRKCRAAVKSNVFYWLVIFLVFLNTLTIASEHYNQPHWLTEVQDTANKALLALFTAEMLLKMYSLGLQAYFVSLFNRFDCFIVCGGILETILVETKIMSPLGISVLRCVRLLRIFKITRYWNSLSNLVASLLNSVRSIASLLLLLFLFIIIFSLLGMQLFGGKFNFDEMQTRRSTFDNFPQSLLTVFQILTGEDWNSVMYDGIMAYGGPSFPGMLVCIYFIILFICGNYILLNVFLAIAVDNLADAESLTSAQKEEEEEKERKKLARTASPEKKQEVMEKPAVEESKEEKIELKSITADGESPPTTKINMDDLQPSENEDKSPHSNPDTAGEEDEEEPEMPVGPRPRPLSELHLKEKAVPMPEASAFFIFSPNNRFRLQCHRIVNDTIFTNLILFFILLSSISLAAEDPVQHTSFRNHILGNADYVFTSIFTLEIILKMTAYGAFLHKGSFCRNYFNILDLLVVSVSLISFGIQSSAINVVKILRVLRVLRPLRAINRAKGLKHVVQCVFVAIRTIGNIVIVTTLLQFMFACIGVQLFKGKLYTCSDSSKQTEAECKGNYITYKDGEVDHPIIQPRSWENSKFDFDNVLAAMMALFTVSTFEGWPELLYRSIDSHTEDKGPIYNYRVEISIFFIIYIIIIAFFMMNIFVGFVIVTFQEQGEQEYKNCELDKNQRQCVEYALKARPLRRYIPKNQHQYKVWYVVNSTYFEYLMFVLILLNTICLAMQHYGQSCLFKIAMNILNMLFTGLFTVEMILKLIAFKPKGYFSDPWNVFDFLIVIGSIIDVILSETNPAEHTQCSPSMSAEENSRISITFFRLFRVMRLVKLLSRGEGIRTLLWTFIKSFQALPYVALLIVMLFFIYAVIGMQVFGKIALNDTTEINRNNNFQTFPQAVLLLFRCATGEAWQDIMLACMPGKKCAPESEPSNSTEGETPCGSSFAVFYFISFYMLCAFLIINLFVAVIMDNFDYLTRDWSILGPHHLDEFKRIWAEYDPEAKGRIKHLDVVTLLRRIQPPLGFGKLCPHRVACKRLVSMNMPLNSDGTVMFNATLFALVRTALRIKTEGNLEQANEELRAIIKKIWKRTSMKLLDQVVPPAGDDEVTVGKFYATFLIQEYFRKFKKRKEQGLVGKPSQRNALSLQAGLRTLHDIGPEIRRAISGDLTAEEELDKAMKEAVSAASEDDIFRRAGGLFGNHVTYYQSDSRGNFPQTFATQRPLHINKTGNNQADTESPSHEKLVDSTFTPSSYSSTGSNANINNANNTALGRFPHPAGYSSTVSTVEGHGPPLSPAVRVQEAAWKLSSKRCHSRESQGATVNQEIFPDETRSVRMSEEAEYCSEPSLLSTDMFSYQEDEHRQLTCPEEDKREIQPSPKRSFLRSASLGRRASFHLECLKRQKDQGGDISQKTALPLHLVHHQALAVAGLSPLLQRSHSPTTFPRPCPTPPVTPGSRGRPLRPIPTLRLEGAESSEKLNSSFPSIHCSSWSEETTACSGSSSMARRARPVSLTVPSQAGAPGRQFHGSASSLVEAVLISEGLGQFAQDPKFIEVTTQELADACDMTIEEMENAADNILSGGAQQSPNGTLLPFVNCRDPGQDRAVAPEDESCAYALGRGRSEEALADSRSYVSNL
UniProt Q99246: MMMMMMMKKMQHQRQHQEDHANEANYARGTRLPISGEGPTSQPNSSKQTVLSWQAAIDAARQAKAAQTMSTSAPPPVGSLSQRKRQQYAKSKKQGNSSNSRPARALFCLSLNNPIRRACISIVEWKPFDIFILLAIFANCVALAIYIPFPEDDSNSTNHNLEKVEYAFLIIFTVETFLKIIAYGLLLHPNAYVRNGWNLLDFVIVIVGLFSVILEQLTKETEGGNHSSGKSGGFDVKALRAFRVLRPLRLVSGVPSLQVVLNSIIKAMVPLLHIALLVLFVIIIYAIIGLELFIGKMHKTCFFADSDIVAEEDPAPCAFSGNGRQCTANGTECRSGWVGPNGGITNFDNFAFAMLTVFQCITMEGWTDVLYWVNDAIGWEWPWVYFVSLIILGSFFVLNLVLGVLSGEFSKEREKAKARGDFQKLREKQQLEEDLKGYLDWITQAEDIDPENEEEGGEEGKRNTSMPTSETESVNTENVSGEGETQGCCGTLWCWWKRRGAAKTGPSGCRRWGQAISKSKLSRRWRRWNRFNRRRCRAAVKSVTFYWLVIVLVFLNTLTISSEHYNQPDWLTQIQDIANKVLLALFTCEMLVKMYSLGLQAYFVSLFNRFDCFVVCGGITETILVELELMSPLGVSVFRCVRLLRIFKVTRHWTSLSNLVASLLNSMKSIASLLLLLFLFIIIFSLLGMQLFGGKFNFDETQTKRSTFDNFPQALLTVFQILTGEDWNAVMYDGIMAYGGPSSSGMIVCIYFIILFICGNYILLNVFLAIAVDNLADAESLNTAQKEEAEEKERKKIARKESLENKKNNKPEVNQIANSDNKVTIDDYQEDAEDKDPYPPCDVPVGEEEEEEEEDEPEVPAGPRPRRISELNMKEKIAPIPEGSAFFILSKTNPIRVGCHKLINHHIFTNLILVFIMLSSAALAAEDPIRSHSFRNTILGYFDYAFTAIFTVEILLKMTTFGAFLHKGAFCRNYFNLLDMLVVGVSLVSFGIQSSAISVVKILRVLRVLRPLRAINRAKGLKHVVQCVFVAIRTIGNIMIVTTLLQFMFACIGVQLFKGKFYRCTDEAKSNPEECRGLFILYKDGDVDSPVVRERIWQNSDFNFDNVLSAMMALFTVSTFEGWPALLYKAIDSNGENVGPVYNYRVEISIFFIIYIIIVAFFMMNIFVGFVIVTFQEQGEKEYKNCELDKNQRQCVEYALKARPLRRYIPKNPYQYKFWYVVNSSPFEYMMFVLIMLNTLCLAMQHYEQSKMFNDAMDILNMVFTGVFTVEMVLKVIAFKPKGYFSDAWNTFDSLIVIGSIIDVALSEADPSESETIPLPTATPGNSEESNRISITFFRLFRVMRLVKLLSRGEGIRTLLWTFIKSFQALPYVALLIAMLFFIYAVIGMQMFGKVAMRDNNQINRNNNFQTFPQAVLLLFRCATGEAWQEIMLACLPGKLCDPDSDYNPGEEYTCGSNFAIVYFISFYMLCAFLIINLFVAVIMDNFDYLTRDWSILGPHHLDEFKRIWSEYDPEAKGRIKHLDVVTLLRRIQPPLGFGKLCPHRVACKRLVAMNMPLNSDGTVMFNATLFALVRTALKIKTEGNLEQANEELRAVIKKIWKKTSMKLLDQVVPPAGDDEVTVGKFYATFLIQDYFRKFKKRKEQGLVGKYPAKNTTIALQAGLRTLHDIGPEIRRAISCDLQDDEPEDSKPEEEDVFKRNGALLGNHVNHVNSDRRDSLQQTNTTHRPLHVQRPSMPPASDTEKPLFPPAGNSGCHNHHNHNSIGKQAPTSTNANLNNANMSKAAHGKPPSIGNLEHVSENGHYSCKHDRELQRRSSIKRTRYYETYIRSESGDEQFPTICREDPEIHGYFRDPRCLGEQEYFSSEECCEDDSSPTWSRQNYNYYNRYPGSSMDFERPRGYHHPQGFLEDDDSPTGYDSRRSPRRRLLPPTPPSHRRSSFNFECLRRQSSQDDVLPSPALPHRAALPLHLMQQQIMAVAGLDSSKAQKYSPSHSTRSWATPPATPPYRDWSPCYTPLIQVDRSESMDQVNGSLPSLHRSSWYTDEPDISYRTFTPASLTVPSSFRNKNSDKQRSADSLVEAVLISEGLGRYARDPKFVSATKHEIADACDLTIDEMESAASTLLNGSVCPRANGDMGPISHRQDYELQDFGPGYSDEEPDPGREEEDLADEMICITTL
UniProt O08532, residues 25-1103: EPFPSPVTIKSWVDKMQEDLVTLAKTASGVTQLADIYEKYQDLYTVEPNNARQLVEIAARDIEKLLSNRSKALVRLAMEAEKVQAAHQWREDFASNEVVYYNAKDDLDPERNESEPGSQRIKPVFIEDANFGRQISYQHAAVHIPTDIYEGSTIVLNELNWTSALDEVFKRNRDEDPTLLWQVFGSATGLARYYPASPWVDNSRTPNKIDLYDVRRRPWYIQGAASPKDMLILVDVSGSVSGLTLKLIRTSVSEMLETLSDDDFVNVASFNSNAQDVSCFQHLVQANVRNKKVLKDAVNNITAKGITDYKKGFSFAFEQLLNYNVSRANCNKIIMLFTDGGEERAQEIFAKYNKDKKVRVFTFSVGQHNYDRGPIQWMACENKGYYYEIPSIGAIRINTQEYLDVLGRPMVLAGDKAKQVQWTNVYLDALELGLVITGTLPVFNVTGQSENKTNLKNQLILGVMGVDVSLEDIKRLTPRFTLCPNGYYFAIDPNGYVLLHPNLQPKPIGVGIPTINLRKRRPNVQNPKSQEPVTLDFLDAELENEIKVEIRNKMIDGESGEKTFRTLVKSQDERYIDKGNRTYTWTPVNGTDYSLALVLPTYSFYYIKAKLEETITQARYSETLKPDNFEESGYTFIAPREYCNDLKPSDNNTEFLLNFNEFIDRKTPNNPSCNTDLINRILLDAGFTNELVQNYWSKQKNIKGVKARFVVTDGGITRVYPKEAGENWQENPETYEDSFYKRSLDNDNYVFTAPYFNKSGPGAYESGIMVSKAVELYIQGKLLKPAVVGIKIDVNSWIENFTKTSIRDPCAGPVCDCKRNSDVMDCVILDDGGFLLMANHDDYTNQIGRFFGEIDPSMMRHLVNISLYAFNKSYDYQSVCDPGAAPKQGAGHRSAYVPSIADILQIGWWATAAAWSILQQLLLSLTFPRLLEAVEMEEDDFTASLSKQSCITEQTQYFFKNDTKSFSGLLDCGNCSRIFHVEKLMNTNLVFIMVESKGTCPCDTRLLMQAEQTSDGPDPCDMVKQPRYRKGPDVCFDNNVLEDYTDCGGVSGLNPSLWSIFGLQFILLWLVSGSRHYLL

T1: liver/bone/kidney alkaline phosphatase (ALPL) (mouse (endogenous in BMSCs)) (UniProt P09242)
T1 sequence: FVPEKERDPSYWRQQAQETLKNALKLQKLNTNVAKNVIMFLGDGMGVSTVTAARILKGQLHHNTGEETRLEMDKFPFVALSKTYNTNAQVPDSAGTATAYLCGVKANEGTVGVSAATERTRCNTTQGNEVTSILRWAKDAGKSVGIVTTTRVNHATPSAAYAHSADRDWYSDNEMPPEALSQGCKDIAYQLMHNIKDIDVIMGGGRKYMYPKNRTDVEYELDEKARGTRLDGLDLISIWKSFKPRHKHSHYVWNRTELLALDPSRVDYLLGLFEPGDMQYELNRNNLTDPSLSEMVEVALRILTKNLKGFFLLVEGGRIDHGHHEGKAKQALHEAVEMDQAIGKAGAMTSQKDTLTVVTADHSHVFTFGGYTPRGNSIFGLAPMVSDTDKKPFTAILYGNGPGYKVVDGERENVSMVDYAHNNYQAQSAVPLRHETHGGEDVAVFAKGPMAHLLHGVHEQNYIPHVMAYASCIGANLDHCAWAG


How the values were obtained:
Test in all cases: co-IP; endogenous proteins in BMSC lysate; lysate incubated with primary antibody overnight at 4 °C, protein A/G magnetic beads 2 h at 4 °C, washed three times with PBS 0.1% Tween-20, western blot
[1] = molecular target: T1, liver/bone/kidney alkaline phosphatase (ALPL) (mouse (endogenous in BMSCs))
[2] = molecular target: L-type Ca2+ channel CaV1.2 (mouse (endogenous in BMSCs)) (UniProt Q01815)
[3] = molecular target: L-type Ca2+ channel CaV1.3 (mouse (endogenous in BMSCs)) (UniProt Q99246)
[4] = molecular target: α2δ subunit of the L-type Ca2+ channel (mouse (endogenous in BMSCs)) (UniProt O08532)

| binding [1] | binding [3] | binding [4] | Molecule | binding [2] |
| --- | --- | --- | --- | --- |
| binds | – | – | L-type Ca2+ channel CaV1.3 (from UniProt Q99246 1-2179) | – |
| binds | – | – | L-type Ca2+ channel CaV1.2 (from UniProt Q01815 1-2139) | – |
| – | binds | binds | liver/bone/kidney alkaline phosphatase (ALPL) (enzyme, UniProt P09242 18-501) FVPEKERDPSYWRQQAQETLKNALKLQKLNTNVAKNVIMFLGDGMGVSTVTAARILKGQLHHNTGEETRLEMDKFPFVALSKTYNTNAQVPDSAGTATAYLCGVKANEGTVGVSAATERTRCNTTQGNEVTSILRWAKDAGKSVGIVTTTRVNHATPSAAYAHSADRDWYSDNEMPPEALSQGCKDIAYQLMHNIKDIDVIMGGGRKYMYPKNRTDVEYELDEKARGTRLDGLDLISIWKSFKPRHKHSHYVWNRTELLALDPSRVDYLLGLFEPGDMQYELNRNNLTDPSLSEMVEVALRILTKNLKGFFLLVEGGRIDHGHHEGKAKQALHEAVEMDQAIGKAGAMTSQKDTLTVVTADHSHVFTFGGYTPRGNSIFGLAPMVSDTDKKPFTAILYGNGPGYKVVDGERENVSMVDYAHNNYQAQSAVPLRHETHGGEDVAVFAKGPMAHLLHGVHEQNYIPHVMAYASCIGANLDHCAWAG | binds |
